In PMC8997993:
No constants are given. Whether binding was seen depends on the method and setting. Binding seen in cells or lysates may run through a third protein. A yes stands for co-enrichment or nearness to the bait. Other partners may have been found. Each block holds one binder with its values, some of them ahead of it.

Molecular target: HLH4-3×FLAG-3×MYC (35S-HLH4-3 × FLAG-3 × MYC transgenic plants) (A. thaliana)
Experiment: affinity purification with mass spectrometry; total protein of HLH4 overexpression plants (35S-HLH4-3×FLAG-3×MYC); FLAG M2 magnetic beads, 3 h at 4 °C; 50 mM Tris-HCl pH 7.5, 0.15 M NaCl, 5 mM MgCl2, 0.2% NP-40, 10% glycerol; eluate separated by SDS-PAGE and analysed by mass spectrometry

- binding: binds
B1: PRE transcription factor AT5G15160 (protein, UniProt Q9LXG5 1-94)
chain: MSSSRRSRQASSSSRISDDQITDLISKLRQSIPEIRQNRRSNTVSASKVLQETCNYIRNLNKEADDLSDRLTQLLESIDPNSPQAAVIRSLING

- binding: binds
B2: PRE transcription factor AT1G26945 (protein, UniProt Q8GW32 1-94)
chain: MSSRRSSRSRQSGSSRISDDQISDLVSKLQHLIPELRRRRSDKVSASKVLQETCNYIRNLHREVDDLSDRLSELLASTDDNSAEAAIIRSLLNY

- binding: binds
B3: PRE transcription factor AT5G39860 (protein, UniProt Q9FLE9 1-92)
chain: MSNRRSRQSSSAPRISDNQMIDLVSKLRQILPEIGQRRRSDKASASKVLQETCNYIRNLNREVDNLSERLSQLLESVDEDSPEAAVIRSLLM
